According to paper PMC10163288:
The list shows a part of the results.

B1: il2ra_site2_3nfp_sap_23_mot_HHH_b1_04032_000000208_0001_43_56_H_._c19e5fdadaa67d7d98d76bf2a1bb890a_0001_af2_0001_0000400031_0000001_0_0001 (protein)
chain: SSSSDVERRVQELQVRAYELLKRGNPEEARELLEEALELAEEGNDPHLERQVREALELLKSSSSS
B2: il2ra_site2_3nfp_sap_21_mot_HHH_b1_07556_000000077_0001_42_55_H_._HHH_b2_06001_0001_0000200009_0000001_0_0001 (protein)
chain: SSSSKAEEYLKIALELLRELLEAGDEEAARSVAEVALAAAESRNDEEVEEEVRKVLEELESSSSS
B3: il2ra_site2_2erj_normal_mot_HHH_b2_00732_af2_000000006_0001_23_40_H_._HHH_b2_05430_0001_0000400009_0000001_0 (protein)
chain: SSSSYEVLKRVMELLAEAMRAAWEGDPELVRELLEEAKELAEEHKNEDLEKIIEEVEHTLRSSSS
B4: il2ra_site2_2erj_sap_16_mot_HHH_b1_03702_000000266_0001_38_56_H_._890837e3a18e6c361ae5da7f11a0c10d_0001_1_0001_0000400010_0000001_0_0001 (protein)
chain: SSSSSDSLEVNKEMAEELFEEGDRSALELILRYLELILRDTGDPEIEKAYERVQELLERLSSSSS
B5: il2ra_site2_3nfp_sap_24_mot_HHH_b1_08081_af2_000000020_0001_38_50_H_._HHH_b2_06530_0001_0000200022_0000001_0_0001_af2pred_0001_af2pred (protein)
chain: DHVSRVIRELFEEGDPELALLLSSVKALVFEKNDPELEEELEKLIELAKRDPEEAKELARRLAQR
B6: il2ra_site1_1z92_sap_31_mot_HHH_b1_00484_000000059_0001_1_21_H_._3bb7d9e44b5839af8d8f44c30c46ab63_0001_af2_0001_0000200019_0000001_0_0001_af2pred_0001_af2pred (protein)
chain: SSSSDEELREFAEEVVERLVEEFGLDEELERLLRRLAEKLVEAGFSPKSIELALRAAVERLSSSS
B7: il2ra_site2_2erj_sap_18_mot_HHH_b2_00554_af2_000000116_0001_43_57_H_._HHH_b2_00577_0001_0000400010_0000001_1_0001 (protein)
chain: SSSSDEELRRLYELAVRILRAIAEGNPEEAKELLRELEELAEETKSDNVKEIVEWLERMLRSSSS
B8: il2ra_site1_3nfp_sap_24_mot_HHH_b1_01291_000000078_0001_42_56_H_._7f39e2d7389de0c2f60e905c27398b6a_0001_1_af2_0001_0000700016_0000001_0_0001 (protein)
chain: DVEELLKLARELGDELVEEVAEFLAEELEKDPDNEAVRYAVKMLLDALERNPEYAKRAAELALRA
B9: il2ra_site2_2erj_sap_17_mot_HHH_b2_05486_000000159_0001_39_55_H_._HHH_b1_08641_af2_0001_0000100002_0000001_0_0001 (protein)
chain: SSSSSDEIEEEVLELIAEAAHIPDPKEAVEVLEHALELAEEYGNELLRRYLELSLKDIRGSSSSS
B10: il2ra_site1_1z92_sap_14_mot_HHH_b1_05862_af2_000000270_0001_22_38_H_._HHH_b1_06212_0001_0000200007_0000001_0_0001_af2pred_0001_af2pred_1 (protein)
chain: SSSSSDLEELIEEIARELAEENNDEDLREELEKAAERLKKLGTSHERARKILEKLVKAARSSSSS
B11: il2ra_site1_3nfp_sap_17_mot_HHH_b2_05479_af2_000000070_0001_1_16_H_._HHH_b2_02924_af2_0001_0000200019_0000001_0_0001_af2pred_0001_1_af2pred_swapped (protein)
chain: SSSSSSDEEEVEELLERAKRVEDIKEAQELLEEALRIASETDNPELRKLVEEAMRELAGSSSSSS
B12: il2ra_site1_1z92_sap_22_mot_707acc9d051fe3a4acad5ad22db0e630_0001_1_af2_000000084_0001_35_50_H_._HHH_b1_02301_0001_0000400017_0000001_0_0001 (protein)
chain: SSSSSWREESLRMMLRVLERAVKAGNERAVEKWLRMIEMQAKILGDPEAEELVEEVRERLSSSSS
B13: il2ra_site1_3nfp_sap_8_mot_119b7766384adbe86006a62bce89dba1_0001_af2_000000092_0001_18_32_H_._HHH_b2_02632_0001_0000300007_0000001_0_0001 (protein)
chain: SSSSDARELLFEAAEILDELAERGDHEELKRFAEEVIEELEELGNRQAARMIRWLVERALSSSSS
B14: il2ra_site1_2b5i_sap_13_mot_HHH_b2_04910_000000118_0001_1_19_H_._HHH_b1_01231_0001_0000100002_0000001_0_0001_af2pred_0001_af2pred (protein)
chain: SSSSSEASKLFWEYLEQADRALRRGNPEEAEELLEELIRLLRELNNPTLVRSAELLLEQLKSSSS
B15: il2ra_site1_1z92_normal_mot_8a2488b2a3eb54e2d6a8d2f084ff7391_0001_000000050_0001_32_46_H_._b88b9ab6f2ed0898e4e13bd4c8b0475b_0001_af2_0001_0001000045_0000001_0 (protein)
chain: DEEVEQLFEELKKRIPPEEVVRILLEELAEKLGDPKEAIRIVHQVLRKLGFSPEEIIELARKADK
B16: il2ra_site1_1z92_sap_8_mot_a31c9f16200a66e5ad31ddff700483a3_0001_1_000000069_0001_19_32_H_._HHH_b1_08052_0001_0000300018_0000001_0_0001_af2pred_0001_af2pred (protein)
chain: SSSSEESLRRLAERLVEDAAKLADLSEEQKEELEELAEELIKRGVDPHEIAKELERLADELSSSS
B17: il2ra_site2_3nfp_sap_12_mot_HHH_b1_02359_000000112_0001_1_19_H_._HHH_b1_07040_0001_0000500008_0000001_0_0001 (protein)
chain: SSSSSSKRLLEAAIRSLRILKERGDEEMAKLAVRYLLAAARLHGDEEAREFAEELLKELRSSSSS
B18: il2ra_site1_1z92_sap_7_mot_2d0b8033f7cc6bf30152df0733deaa63_0001_af2_000000109_0001_53_63_H_._HHH_b1_05185_0001_0000500022_0000001_0_0001_af2pred_0001_af2pred_1 (protein)
chain: DEALEILLLLAKGDPEAERLLRELIERLEEEGDEEEVRFLLEEAEKIVKLFNNPEAQRVVEELEP
B19: il2ra_site2_3nfp_normal_mot_HHH_b2_06150_000000217_0001_39_53_H_._HHH_b2_05434_af2_0001_0000100005_0000001_0 (protein)
chain: SSSSDEEEVEKLLKKAEELRERGNPEEARKLLREATQIAYERRDSELFFLVAEVLFEVLLSSSSS
B20: il2ra_site1_1z92_sap_30_mot_HHH_b1_04932_af2_000000260_0001_1_19_H_._HHH_b1_03927_af2_0001_0000800028_0000001_0_0001_af2pred_0001_af2pred (protein)
chain: SSSSNSLERILEILLRNVEKALESGNPRAARRLLEEAKKAAKDAGDEEVERRLEELEELLNSSSS
B21: il2ra_site1_3nfp_sap_19_mot_1cd86ef9f1587ae5d14d35bbbd8e7f1d_0001_1_000000087_0001_34_49_H_._HHH_b2_06979_0001_0000500027_0000001_0_0001_af2pred_0001_1_af2pred_ … (protein)
chain: SSSSSSSSERFLRELLERAERRNNELDLKAIARMLKQAAELHNNEELFEKAKEIEERLSSSSSSS
B22: il2ra_site1_1z92_normal_mot_3c291a2f2994a8e029b17f9ec7f22732_0001_af2_000000144_0001_36_50_H_._1a8b5531b1c5c0995b8d0dfb01d8624e_0001_0001_0000300044_0000001_1 (protein)
chain: SFEYLEEEVKEAAENNDPELLQELLEELEEIAGDPHLATQFLVALIARVLNIPPEEARKIVEEVK
B23: il2ra_site2_3nfp_sap_21_mot_ems_3hM_1278_af2_000000151_0001_43_60_H_._ae2d1c0b5552e85e62693402b9c72bf7_0001_af2_0001_0000500079_0000001_0_0001 (protein)
chain: SSSSDVEERVRELLEEAERLREEGNPEEVKELLAEAAQLAFENNDERAFMLIAEVVLKLAQSSSS
B24: il2ra_site1_2b5i_sap_5_mot_HHH_b1_04602_000000079_0001_23_39_H_._HHH_b2_01629_0001_0000300018_0000001_0_0001 (protein)
chain: SSSSDVEEQVDELFREASELWRKGNPEEAEKVLEEAIELAKKSGDPKAEEDLERFLEMLRSSSSS
B25: il2ra_site1_3nfp_sap_14_mot_0eddeacbb14b769e73e254714f31e2f9_0001_af2_000000052_0001_37_51_H_._HHH_b1_00703_0001_0000400046_0000001_0_0001 (protein)
chain: SSSSDEELRKIEELLREVKRLAHEGNPEEARKLLEEAQRLAEEANDPIARRLVEDMRRNLNSSSS
B26: il2ra_site1_3nfp_sap_24_mot_HHH_b1_07882_000000017_0001_39_56_H_._HHH_b2_00888_0001_0000100005_0000001_0_0001_af2pred_0001_af2pred_1_swapped (protein)
chain: SSSSSYEERVRELLERAEELLEEGDLEKVKELLEEAKEVAKELGDRELIELVWRFLEEIVRSSSS
B27: il2ra_site2_2erj_sap_22_mot_HHH_b1_03833_000000078_0001_1_20_H_._HHH_b1_04328_af2_0001_0000400018_0000001_0_0001 (protein)
chain: SELERVLEEIEEKFSDDPEIKEIIEELKELIKNNDPRALHLLFKLAVILLKKNPELAHELLEATS

Target: il2ra, P01589
Assay: yeast display titration

Apparent Kd, inactive:
B1 no binding seen, B2 > 21.4 µM, B3 no binding seen, B4 no binding seen, B5 no binding seen, B6 no binding seen, B7 no binding seen, B8 no binding seen, B9 no binding seen, B10 no binding seen, B11 no binding seen, B12 no binding seen, B13 no binding seen, B14 no binding seen, B15 no binding seen, B16 no binding seen, B17 no binding seen, B18 no binding seen, B19 no binding seen, B20 no binding seen, B21 no binding seen, B22 no binding seen, B23 no binding seen, B24 no binding seen, B25 no binding seen, B26 no binding seen, B27 no binding seen
